Drawing on the supplement of paper PMC10849652, this text covers log2 fold change for 39 targets.

Protein sequences, listed by entry. Tags and fused reporters are not part of them. Lines headed by an entry give the natural chain unless they say otherwise; changes in a name come on top.
UniProt Q969X1: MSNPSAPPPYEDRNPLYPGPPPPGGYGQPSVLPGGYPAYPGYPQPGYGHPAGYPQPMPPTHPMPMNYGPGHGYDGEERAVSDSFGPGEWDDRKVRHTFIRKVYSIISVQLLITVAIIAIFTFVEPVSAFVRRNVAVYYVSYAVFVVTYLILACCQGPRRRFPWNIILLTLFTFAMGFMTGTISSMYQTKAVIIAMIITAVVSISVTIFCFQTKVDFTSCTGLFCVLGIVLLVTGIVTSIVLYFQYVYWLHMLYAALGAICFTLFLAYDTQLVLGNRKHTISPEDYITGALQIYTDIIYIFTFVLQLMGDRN
UniProt Q86XT9, whole entry, looked up: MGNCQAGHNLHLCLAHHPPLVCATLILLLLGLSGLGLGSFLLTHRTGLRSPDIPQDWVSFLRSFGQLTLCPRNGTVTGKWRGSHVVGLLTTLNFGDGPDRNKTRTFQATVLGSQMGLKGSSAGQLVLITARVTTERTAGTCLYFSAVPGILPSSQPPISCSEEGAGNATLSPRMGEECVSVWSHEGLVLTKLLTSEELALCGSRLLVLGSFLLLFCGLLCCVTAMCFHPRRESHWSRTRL
UniProt Q86UE8, whole entry, looked up: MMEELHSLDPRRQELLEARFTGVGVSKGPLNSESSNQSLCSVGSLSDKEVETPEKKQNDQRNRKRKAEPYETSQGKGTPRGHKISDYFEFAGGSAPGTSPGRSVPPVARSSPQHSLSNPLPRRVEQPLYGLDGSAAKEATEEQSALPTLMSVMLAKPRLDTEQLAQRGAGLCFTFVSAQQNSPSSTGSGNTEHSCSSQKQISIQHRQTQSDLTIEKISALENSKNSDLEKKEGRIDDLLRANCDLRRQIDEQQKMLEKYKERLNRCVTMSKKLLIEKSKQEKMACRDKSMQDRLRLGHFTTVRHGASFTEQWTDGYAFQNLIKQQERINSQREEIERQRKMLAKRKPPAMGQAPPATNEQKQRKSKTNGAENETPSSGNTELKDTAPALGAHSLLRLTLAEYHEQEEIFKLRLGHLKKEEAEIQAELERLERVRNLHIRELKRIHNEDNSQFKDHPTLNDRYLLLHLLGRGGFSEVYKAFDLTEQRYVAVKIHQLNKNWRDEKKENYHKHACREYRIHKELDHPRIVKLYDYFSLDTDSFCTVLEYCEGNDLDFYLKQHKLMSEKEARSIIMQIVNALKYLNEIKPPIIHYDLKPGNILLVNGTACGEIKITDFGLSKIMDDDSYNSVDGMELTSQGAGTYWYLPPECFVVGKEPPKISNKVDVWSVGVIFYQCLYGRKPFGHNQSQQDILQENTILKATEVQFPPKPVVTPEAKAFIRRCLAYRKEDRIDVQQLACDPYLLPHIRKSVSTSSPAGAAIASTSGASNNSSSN
UniProt Q6PL24: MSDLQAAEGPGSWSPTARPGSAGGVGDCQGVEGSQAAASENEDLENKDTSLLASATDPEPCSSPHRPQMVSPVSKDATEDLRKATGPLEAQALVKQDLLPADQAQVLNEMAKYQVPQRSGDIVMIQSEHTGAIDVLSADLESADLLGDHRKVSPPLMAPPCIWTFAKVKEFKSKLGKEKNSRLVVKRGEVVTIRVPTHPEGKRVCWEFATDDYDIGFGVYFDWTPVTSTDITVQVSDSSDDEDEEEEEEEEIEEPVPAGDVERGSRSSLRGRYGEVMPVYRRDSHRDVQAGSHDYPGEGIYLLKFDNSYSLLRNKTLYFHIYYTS
UniProt Q0VDI3: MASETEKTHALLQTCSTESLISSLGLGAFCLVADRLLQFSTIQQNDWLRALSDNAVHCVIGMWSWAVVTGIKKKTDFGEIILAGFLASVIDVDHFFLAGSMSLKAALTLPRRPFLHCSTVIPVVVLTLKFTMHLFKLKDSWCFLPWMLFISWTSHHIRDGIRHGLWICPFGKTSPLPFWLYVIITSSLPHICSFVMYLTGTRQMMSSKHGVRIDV
UniProt Q9P2C4: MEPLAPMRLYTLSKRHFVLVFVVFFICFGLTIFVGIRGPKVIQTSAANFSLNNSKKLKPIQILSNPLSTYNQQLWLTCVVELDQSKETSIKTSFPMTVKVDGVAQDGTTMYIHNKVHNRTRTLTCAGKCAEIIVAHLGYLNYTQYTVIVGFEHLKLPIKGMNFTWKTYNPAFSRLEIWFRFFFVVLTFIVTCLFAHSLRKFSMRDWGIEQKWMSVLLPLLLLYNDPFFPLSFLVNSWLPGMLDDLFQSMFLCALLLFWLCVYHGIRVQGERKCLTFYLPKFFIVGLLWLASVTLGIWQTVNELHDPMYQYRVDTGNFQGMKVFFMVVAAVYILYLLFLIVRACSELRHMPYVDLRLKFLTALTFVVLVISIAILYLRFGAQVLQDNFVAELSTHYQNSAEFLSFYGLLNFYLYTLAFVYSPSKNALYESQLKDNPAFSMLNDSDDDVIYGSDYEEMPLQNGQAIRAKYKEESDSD
UniProt Q9NUM4, whole entry, looked up: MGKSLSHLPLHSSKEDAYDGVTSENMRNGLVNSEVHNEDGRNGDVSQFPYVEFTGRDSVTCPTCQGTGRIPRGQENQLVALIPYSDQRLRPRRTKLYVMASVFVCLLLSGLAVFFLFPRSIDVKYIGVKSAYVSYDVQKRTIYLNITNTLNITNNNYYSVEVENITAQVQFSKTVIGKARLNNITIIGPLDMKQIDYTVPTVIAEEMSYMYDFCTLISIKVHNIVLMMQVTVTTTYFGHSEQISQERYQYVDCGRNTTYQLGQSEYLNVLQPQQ
UniProt Q9P0T7: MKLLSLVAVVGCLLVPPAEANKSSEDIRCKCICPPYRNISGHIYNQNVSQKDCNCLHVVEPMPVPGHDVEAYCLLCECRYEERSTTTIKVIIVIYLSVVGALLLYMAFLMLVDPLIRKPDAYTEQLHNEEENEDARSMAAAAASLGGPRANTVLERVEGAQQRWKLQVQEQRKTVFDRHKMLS
UniProt Q96IK0: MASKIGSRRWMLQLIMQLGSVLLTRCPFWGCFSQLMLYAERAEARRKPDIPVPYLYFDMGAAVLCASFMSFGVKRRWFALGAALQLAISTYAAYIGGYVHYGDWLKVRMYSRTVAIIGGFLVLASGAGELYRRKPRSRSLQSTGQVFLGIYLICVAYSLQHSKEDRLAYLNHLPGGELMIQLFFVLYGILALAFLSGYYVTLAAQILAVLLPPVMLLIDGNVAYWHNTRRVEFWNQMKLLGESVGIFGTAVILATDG
UniProt Q9BVT8: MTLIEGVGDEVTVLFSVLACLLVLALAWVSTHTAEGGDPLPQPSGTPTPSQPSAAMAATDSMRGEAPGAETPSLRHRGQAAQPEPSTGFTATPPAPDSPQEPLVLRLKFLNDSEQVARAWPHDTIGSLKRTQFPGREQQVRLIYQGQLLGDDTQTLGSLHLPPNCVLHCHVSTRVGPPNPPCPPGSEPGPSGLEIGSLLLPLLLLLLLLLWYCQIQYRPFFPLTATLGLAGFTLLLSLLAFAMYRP
UniProt Q5SWH9: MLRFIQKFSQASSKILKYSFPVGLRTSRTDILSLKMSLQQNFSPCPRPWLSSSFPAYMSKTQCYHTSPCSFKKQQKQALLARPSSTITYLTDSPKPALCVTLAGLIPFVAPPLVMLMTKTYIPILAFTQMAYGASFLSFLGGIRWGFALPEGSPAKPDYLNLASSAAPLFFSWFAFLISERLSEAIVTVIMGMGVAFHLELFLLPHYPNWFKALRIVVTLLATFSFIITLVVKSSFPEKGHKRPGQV
UniProt Q53S58: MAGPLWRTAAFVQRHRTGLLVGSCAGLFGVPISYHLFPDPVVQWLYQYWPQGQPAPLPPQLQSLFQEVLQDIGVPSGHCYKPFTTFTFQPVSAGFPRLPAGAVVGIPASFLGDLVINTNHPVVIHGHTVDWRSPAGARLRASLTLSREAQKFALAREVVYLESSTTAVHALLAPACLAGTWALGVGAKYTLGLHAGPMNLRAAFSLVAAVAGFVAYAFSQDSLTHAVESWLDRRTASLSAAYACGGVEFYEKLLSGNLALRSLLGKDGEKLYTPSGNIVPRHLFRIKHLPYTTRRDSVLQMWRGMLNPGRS
UniProt Q96I45: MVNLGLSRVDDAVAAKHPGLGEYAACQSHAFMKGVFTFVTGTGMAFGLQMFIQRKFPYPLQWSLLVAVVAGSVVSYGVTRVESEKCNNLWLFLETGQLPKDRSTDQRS
UniProt Q9NR96: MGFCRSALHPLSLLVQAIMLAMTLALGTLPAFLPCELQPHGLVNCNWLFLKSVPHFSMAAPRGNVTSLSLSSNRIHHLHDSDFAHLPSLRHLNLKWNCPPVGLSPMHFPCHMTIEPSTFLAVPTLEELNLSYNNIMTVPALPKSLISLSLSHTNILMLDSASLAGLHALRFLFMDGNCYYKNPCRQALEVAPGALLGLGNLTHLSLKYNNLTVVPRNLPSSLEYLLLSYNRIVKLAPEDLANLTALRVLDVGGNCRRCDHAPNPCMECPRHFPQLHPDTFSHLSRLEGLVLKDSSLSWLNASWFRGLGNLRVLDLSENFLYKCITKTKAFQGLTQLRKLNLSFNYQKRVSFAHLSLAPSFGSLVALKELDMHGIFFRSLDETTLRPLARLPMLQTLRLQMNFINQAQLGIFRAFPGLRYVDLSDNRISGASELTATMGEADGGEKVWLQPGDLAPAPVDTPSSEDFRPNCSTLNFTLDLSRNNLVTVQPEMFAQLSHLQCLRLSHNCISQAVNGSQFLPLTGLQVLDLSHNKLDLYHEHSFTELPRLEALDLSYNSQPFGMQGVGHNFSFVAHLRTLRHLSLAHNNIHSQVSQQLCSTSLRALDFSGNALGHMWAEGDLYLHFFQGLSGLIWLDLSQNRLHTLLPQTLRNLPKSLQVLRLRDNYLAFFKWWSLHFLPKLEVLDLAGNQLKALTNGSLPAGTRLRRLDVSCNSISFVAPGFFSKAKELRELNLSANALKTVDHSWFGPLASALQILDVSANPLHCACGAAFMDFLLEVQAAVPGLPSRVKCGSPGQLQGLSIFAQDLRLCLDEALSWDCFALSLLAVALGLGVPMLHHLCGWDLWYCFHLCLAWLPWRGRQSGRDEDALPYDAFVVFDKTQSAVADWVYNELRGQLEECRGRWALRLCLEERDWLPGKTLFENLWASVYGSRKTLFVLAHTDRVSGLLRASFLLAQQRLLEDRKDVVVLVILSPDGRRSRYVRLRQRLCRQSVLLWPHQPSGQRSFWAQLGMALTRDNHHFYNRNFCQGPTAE
UniProt A0PJW6: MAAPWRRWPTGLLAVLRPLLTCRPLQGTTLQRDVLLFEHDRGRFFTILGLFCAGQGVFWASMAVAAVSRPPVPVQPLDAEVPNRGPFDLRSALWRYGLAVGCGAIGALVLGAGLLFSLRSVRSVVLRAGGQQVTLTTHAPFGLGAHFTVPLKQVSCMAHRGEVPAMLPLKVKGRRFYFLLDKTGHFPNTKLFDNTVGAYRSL
UniProt Q9NWH2: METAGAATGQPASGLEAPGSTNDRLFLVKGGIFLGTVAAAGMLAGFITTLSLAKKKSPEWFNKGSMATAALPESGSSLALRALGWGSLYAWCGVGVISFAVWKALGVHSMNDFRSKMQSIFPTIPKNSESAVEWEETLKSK
UniProt Q96K49: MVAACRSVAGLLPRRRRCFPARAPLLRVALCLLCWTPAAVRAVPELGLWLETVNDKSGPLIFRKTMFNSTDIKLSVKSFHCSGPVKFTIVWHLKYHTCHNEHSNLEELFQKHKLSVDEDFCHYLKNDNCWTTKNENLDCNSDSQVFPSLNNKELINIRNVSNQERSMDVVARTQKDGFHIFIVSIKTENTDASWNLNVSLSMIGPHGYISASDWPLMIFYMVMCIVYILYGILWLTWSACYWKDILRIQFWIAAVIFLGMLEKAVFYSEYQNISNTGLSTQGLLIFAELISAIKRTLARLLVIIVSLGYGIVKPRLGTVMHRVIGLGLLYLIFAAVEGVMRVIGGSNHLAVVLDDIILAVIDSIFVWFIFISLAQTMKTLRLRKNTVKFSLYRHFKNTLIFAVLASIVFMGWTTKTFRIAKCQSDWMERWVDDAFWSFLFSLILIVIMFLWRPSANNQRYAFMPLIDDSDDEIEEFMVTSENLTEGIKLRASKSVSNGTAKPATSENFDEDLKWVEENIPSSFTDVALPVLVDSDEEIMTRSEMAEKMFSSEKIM
UniProt Q9P0S9: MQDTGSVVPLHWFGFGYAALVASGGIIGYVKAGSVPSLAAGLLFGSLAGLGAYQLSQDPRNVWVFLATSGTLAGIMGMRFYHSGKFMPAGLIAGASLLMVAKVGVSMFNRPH
UniProt Q9NS93: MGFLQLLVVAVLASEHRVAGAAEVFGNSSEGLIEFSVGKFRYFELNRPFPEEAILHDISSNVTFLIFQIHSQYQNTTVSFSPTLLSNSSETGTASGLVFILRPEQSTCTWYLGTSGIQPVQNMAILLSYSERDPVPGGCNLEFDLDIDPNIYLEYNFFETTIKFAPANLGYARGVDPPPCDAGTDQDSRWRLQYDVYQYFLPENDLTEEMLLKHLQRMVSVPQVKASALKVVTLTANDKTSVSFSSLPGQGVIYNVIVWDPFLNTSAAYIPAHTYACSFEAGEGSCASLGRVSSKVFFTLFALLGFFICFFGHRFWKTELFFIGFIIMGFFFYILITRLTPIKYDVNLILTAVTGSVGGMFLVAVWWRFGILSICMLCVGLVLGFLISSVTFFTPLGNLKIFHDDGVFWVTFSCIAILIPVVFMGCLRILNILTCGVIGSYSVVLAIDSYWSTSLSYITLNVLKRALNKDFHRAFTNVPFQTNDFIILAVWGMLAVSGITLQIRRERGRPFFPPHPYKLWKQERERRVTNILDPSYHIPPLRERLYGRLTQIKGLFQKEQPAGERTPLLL

The other results are listed elsewhere or left out.

Compound in the first assay: C=CC(=O)N1CCC[C@@H](n2nc(-c3ccc(Oc4ccccc4)cc3)c3c(N)ncnc32)C1 [ibrutinib]
The experiment in a line: log2 fold change, soluble protein after heating vs DMSO (PISA); higher = thermal stabilisation; K562 cells, 10 uM, 30 min; active = over 0.2 and 3.5 SD of the protein, either way, in both replicates (recomputed). The procedure, abridged:
(§1)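 Thermal stability values are relative to control samples and come from duplicates. They are expressed as log2 fold changes. For measurement, K562 cells (2×10^6 cells/mL) received 10 μM compound for 30 min, and aliquots were heated for 3 min over 48°C-58°C, pooled, and extracted at 4°C in PBS with 0.5% NP-40. Soluble protein, the supernatant after 21,000xg for 90 min, was quantified by TMTpro 16plex LC-MS/MS with equalised channel sums.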
For TMBIM1 (UniProt Q969X1), the log2 fold change was inactive: 0.037.
Still for that read-out and setting: then TMEM219 (UniProt Q86XT9), with inactive: 0.115; and TMEM164 (UniProt Q5U3C3), with inactive: -0.036.
As to TLK2 isoform 2 (UniProt Q86UE8), the log2 fold change is inactive: -0.011.
Same read-out and setting: with TMED8 (UniProt Q6PL24) the figure was inactive: 0.018.
Same read-out and setting: with TMEM267 (UniProt Q0VDI3) the figure was inactive: -0.073.
Same read-out and setting: with TMEM181 (UniProt Q9P2C4) the figure was inactive: -0.048.
On to TMEM106B (UniProt Q9NUM4), for which the log2 fold change is inactive: 0.029.
TMEM9 (UniProt Q9P0T7): the log2 fold change was inactive: 0.039.
On the same count and under the same terms, then TMED3 (UniProt Q9Y3Q3), with inactive: 0.016.
Still for that read-out and setting: with TMEM189-UBE2V1 (UniProt I3L0A0) the figure was inactive: 0.022.
Turning to TMEM101 (UniProt Q96IK0), the log2 fold change is inactive: 0.011.
On the same count and under the same terms, then TMUB1 (UniProt Q9BVT8), with inactive: -0.051.

Compound in the next assay: CC(=O)c1cnc2ccc(-c3cc(Cl)c(O)c(Cl)c3)nc2c1N[C@H]1CC[C@H](CN(C)C)CC1
The assay is described as above. A digest of the protocol: as §1
For the target TMEM134 (UniProt Q9H6X4), the log2 fold change was inactive: -0.058.
The same measure, in the same setting: with TMEM69 (UniProt Q5SWH9) the figure was inactive: 0.033.
TMEM177 (UniProt Q53S58): the log2 fold change was inactive: 0.007.
The same measure, in the same setting: then TMEM141 (UniProt Q96I45), with inactive: -0.023; and TMEM63A (UniProt O94886), with inactive: 0.093.
Same read-out and setting: with TMEM120B (UniProt A0PK00) the figure was inactive: -0.239; with TMEM147 (UniProt Q9BVK8), inactive: -0.094; with TMC1 (UniProt Q8TDI8), inactive: -0.107.
Regarding TLR9 isoform 4 (UniProt Q9NR96), the log2 fold change was inactive: 0.13.
On the same count and under the same terms, then TMEM223 (UniProt A0PJW6), with inactive: -0.101.
TMEM242 (UniProt Q9NWH2): the log2 fold change was inactive: 0.022.
Regarding TNFRSF10A (UniProt O00220), the log2 fold change is inactive: -0.064.
Still for that read-out and setting: with TMEM9B (UniProt Q9NQ34) the figure was inactive: -0.083; with TMEM268 isoform 3 (UniProt Q5VZI3), inactive: -0.042; with TMEM87B (UniProt Q96K49), inactive: -0.046.
For TMEM161B (UniProt Q8NDZ6), the log2 fold change is inactive: 0.008.
Turning to TMEM14C (UniProt Q9P0S9), the log2 fold change was inactive: -0.105.
Regarding TM6SF1 (UniProt Q9BZW5), the log2 fold change was inactive: -0.055.
Consider TMEM104 (UniProt Q8NE00), for which the log2 fold change is inactive: 0.038.
On the same count and under the same terms, then TNFAIP3 (UniProt P21580), with inactive: -0.213.
On the same count and under the same terms, with TNFRSF10B (UniProt O14763) the figure was inactive: -0.121; with TM7SF3 (UniProt Q9NS93), inactive: 0.055; with TMC6 (UniProt Q7Z403), inactive: -0.117.
The same measure, in the same setting: with TMEM192 (UniProt Q8IY95) the figure was inactive: -0.012; with TMEM41A (UniProt Q96HV5), inactive: -0.04; with TMEM123 (UniProt Q8N131), inactive: -0.05.
TMBIM1 (UniProt Q969X1): the log2 fold change is inactive: -0.126.
As to TMEM219 (UniProt Q86XT9), the log2 fold change was inactive: 0.083.
Consider TMEM164 (UniProt Q5U3C3), for which the log2 fold change was inactive: -0.088.
As to TLK2 isoform 2 (UniProt Q86UE8), the log2 fold change is inactive: -0.144.
Same read-out and setting: then TMED8 (UniProt Q6PL24), with inactive: -0.128.
The same measure, in the same setting: then TMEM267 (UniProt Q0VDI3), with inactive: 0.102; and TMEM181 (UniProt Q9P2C4), with inactive: 0.184; and TMEM106B (UniProt Q9NUM4), with inactive: 0.043.
Regarding TMEM9 (UniProt Q9P0T7), the log2 fold change was inactive: 0.012.
For TMED3 (UniProt Q9Y3Q3), the log2 fold change was inactive: -0.07.
Still for that read-out and setting: with TMEM189-UBE2V1 (UniProt I3L0A0) the figure was inactive: -0.022; with TMEM101 (UniProt Q96IK0), inactive: -0.006.
On to TMUB1 (UniProt Q9BVT8), for which the log2 fold change is inactive: -0.057.

Compound in a further assay: CC(C)(C)Cn1c(N)nc2ccc(-c3[nH]c(C(C)(C)C)nc3-c3ccc(F)cc3)nc21 [ralimetinib]
The description is as above. The procedure, abridged:
as §1
Consider TMEM134 (UniProt Q9H6X4), for which the log2 fold change is inactive: -0.028.
Consider TMEM69 (UniProt Q5SWH9), for which the log2 fold change was inactive: -0.063.
Same read-out and setting: then TMEM177 (UniProt Q53S58), with inactive: -0.068.
For the target TMEM120B (UniProt A0PK00), the log2 fold change is inactive: 0.197.
On to TMEM147 (UniProt Q9BVK8), for which the log2 fold change is inactive: -0.127.
Same read-out and setting: then TLR9 isoform 4 (UniProt Q9NR96), with inactive: 0.052; and TMEM223 (UniProt A0PJW6), with inactive: -0.009; and TMEM242 (UniProt Q9NWH2), with inactive: -0.073.
The same measure, in the same setting: with TNFRSF10A (UniProt O00220) the figure was inactive: -0.072; with TMEM9B (UniProt Q9NQ34), active: 0.324.
Still for that read-out and setting: with TMEM268 isoform 3 (UniProt Q5VZI3) the figure was inactive: -0.056; with TMEM87B (UniProt Q96K49), inactive: -0.086; with TMEM161B (UniProt Q8NDZ6), inactive: -0.097.
Consider TMEM14C (UniProt Q9P0S9), for which the log2 fold change is inactive: -0.093.
TM6SF1 (UniProt Q9BZW5): the log2 fold change is inactive: -0.03.
On the same count and under the same terms, then TMEM104 (UniProt Q8NE00), with inactive: -0.09; and TNFAIP3 (UniProt P21580), with inactive: -0.068.
For the target TM7SF3 (UniProt Q9NS93), the log2 fold change is inactive: -0.068.
Same read-out and setting: then TMC6 (UniProt Q7Z403), with inactive: 0.06; and TMEM192 (UniProt Q8IY95), with inactive: 0.025; and TMEM41A (UniProt Q96HV5), with inactive: 0.033.
Regarding TMBIM1 (UniProt Q969X1), the log2 fold change was inactive: 0.264.
On the same count and under the same terms, with TLK2 isoform 2 (UniProt Q86UE8) the figure was inactive: -0.003; with TMED8 (UniProt Q6PL24), inactive: 0.075.
For the target TMEM267 (UniProt Q0VDI3), the log2 fold change is inactive: -0.091.
The same measure, in the same setting: with TMEM181 (UniProt Q9P2C4) the figure was inactive: -0.008; with TMEM9 (UniProt Q9P0T7), inactive: -0.003; with TMEM189-UBE2V1 (UniProt I3L0A0), inactive: 0.006.
Still for that read-out and setting: with TMEM101 (UniProt Q96IK0) the figure was inactive: -0.054; with TMUB1 (UniProt Q9BVT8), inactive: 0.099.
